The results in this text go back to publication doi:10.1101/2020.02.02.931204.

Chains of the proteins cited; added tags and fusions are not shown.
UniProt P37285: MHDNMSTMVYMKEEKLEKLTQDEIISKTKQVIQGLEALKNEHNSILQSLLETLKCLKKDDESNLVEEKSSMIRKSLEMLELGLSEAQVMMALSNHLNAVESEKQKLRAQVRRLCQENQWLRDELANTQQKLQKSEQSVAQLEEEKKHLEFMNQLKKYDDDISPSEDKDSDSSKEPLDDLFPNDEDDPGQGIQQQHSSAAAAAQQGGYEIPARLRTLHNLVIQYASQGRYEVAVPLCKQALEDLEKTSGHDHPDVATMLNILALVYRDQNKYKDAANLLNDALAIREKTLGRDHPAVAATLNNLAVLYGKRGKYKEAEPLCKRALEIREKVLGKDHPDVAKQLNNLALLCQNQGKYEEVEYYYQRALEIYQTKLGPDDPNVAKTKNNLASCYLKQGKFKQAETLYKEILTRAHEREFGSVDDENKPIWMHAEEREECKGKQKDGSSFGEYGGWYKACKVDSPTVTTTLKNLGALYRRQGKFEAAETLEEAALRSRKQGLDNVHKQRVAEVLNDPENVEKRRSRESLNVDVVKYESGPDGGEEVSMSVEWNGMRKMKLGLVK
UniProt Q6QLM7: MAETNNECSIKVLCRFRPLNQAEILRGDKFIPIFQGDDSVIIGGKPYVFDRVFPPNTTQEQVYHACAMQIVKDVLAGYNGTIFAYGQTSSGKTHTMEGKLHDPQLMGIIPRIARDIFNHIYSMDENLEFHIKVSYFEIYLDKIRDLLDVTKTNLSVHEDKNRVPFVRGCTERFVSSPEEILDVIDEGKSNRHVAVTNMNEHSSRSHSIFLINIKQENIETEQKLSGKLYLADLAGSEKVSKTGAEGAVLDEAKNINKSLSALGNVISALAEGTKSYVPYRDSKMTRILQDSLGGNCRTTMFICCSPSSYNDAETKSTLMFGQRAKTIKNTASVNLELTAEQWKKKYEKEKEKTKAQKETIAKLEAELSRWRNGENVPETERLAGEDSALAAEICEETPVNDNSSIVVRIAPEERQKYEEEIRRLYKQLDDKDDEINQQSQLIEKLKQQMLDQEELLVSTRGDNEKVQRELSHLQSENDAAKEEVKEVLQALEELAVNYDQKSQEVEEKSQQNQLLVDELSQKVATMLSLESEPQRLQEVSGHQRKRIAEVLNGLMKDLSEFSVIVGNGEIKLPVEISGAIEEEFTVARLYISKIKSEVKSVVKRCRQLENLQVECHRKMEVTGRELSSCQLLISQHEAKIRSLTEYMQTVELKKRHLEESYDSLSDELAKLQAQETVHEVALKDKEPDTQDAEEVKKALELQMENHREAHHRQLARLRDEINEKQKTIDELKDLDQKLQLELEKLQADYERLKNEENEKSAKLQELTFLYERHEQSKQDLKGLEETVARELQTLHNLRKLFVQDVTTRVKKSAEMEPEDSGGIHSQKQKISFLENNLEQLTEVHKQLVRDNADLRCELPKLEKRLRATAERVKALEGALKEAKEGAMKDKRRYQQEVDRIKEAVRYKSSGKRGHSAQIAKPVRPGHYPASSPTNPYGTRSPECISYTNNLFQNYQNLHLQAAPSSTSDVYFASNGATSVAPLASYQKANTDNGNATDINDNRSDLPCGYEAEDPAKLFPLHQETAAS

The target of test [1] is KLC1, endogenous in DRG sensory neurons (rat (endogenous in DRG sensory neurons)) (UniProt P37285). Nature of the test: affinity purification with mass spectrometry.
The target in test [2] is Splicing factor proline/glutamine-rich (SFPQ), endogenous in DRG sensory neurons (rat (endogenous in DRG sensory neurons)). Nature of the test: affinity purification with mass spectrometry.

Results are given in words; binding and its absence hold for the method and conditions named. In cells and extracts the contact can be indirect. These calls come from enrichment with a bait or labelling near it, and not all partners need be listed.

For “KIF5A, endogenous in DRG sensory neurons (from UniProt Q6QLM7 1-1027)”, the binding result in test [1] is “binds”.

B1: PSPC1, endogenous in DRG sensory neurons (protein, UniProt Q4KLH4 1-522)
chain: MMLRGNLKQVRIEKNPARLRALESAAGESEPVAAAAMALTLAGEQPPPPAPSEEHPDEEMGFTIDIKSFLKPGEKTYTQRCRLFVGNLPTDITEEDFKRLFERYGEPSEVFINRDRGFGFIRLESRTLAEIAKAELDGTILKSRPLRIRFATHGAALTVKNLSPVVSNELLEQAFSQFGPVEKAVVVVDDRGRATGKGFVEFAAKPPARKALERCGDGAFLLTTTPRPVIVEPMEQFDDEDGLPEKLMQKTQQYHKEREQPPRFAQPGTFEFEYASRWKALDEMEKQQREQVDRNIREAKEKLEAEMEAARHEHQLMLMRQDLMRRQEELRRLEELRNQELQKRKQIQLRHEEEHRRREEEMIRHREQEELRRQQEGFKPNYMENREQEMRMGDMGPRGAINMGDAFSPAPAGTQGPPPMMGMNMNNRGTIPGPPMGPGPAMGPEGAANMGTPMIPDNGAVHNDRFPQGPPSQMGSPMGNRTGSETPQAPMSAVGPVSGGPGGFGRGSQGGNFEGPNKRRRY
In the case of B1, the binding result in test [2] is “binds”.
